In article PMC9718803:
Results are given in words; binding and its absence hold for the method and conditions named. Binding seen in cells or lysates may run through a third protein. Here binding means that the protein was enriched with, or labelled near, the bait; the list need not be complete.

Protein sequences, listed by entry. Tags and fused reporters are not part of them.
UniProt F4J8G7: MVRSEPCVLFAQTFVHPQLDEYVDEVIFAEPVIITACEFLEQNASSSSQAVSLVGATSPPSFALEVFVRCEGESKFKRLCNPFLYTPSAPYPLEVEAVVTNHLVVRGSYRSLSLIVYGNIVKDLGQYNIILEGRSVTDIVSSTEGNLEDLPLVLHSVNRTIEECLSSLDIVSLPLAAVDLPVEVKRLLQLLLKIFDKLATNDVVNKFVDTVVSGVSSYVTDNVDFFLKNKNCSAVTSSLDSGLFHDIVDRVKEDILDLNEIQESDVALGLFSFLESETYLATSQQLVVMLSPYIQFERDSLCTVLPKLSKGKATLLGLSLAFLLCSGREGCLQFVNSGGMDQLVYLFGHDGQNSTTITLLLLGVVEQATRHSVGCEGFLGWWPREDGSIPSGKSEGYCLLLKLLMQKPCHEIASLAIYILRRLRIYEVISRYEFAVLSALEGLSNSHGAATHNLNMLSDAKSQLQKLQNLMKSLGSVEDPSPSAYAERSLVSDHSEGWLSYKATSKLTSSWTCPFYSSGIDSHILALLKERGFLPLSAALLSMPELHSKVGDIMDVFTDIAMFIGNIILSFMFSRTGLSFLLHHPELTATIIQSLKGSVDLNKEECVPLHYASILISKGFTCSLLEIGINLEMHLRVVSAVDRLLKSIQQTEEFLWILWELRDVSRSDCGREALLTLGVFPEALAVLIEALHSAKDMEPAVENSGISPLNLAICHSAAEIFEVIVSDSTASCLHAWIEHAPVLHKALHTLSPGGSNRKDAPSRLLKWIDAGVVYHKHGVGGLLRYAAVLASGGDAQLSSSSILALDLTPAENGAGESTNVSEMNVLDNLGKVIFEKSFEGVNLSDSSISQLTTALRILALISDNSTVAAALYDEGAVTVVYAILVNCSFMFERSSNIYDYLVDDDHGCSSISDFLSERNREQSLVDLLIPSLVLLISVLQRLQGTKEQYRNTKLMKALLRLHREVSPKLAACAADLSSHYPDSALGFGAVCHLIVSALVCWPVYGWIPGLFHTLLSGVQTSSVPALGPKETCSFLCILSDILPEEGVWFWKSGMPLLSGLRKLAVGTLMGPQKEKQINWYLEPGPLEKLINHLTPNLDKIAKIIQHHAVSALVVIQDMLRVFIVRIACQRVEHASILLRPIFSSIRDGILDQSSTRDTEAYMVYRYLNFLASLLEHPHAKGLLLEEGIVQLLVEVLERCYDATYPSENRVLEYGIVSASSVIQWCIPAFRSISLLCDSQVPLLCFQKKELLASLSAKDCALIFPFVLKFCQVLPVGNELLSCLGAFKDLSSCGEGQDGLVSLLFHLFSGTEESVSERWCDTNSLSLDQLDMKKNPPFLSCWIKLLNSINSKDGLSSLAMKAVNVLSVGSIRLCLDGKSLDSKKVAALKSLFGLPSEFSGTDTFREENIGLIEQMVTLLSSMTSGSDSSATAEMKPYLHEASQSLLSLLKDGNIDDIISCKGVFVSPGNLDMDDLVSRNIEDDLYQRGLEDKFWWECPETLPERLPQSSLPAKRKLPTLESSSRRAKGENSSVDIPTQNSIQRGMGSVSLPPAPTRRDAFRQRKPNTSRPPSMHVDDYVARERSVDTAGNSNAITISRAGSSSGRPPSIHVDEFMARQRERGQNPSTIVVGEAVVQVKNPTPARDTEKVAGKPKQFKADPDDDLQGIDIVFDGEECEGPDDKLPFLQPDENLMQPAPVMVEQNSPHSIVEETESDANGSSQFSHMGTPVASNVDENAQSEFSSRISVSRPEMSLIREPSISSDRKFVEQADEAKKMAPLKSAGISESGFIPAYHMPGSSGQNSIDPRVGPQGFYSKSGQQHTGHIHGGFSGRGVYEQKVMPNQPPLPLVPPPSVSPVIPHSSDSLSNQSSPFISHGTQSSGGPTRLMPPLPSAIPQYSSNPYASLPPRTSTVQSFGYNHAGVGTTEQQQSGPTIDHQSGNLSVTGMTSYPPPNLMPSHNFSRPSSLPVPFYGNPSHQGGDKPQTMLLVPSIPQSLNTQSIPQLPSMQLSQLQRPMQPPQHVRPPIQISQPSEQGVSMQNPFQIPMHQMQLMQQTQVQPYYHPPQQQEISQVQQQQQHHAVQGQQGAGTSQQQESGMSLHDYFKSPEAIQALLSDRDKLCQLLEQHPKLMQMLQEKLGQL

Molecular target: VIRILIZER (VIR) (Arabidopsis thaliana (endogenous in Col-0 seedlings)) (UniProt F4J8G7)
Experiment: affinity purification with mass spectrometry; RNA immunoprecipitation (RIP) from clarified lysate of 7-day-old Col-0 seedlings (50 mM Tris-HCl pH 7.4, 2.5 mM MgCl2, 100 mM KCl, 0.1% Nonidet P-40, RNase OUT) with anti-VIR antibody bound to protein A agarose; normal rabbit IgG as control; associated proteins identified by LC-MS/MS

Binder | binding
HAKAI (protein, UniProt Q9LFC0 1-360) MLQIRLRRDSPTETGNGARPSPTETVTVACPDHLVLADLPVAKGIGSVTPTTVIKPVGRRSRRQLGERVHFCVRCDFPIAIYGRLIPCDHAFCLECARSDSICYLCDERIQKIQTIKMMEGIFICAAPHCLRSFLKKLDFEAHVHDLHGSLLQADAEKEDGNQSDVQSTMQQSSASESTLRAPLRSQLQQSRELNRSASFAKSQSGFSQVQNYPPDSDNSRPPGFETASPKPGIRFPDYPQPMNLMQPPSLPVPMNQNPGLPQQFGFPSYPTTESGSSQQFFNGAQYEMTRTESGGSEQSSLLGYPPPSPMTNLNFQGSYPPPSWNPGMAPPHTTQQVNRGRDGQSFGWPQENRDGFGQE | binds
Arabidopsis Eukaryotic translation initiation factor 3 (eIF3e) (protein, UniProt Q9C5Z3 1-441) MEESKQNYDLTPLIAPNLDRHLVFPIFEFLQERQLYPDEQILKSKIQLLNQTNMVDYAMDIHKSLYHTEDAPQEMVERRTEVVARLKSLEEAAAPLVSFLLNPNAVQELRADKQYNLQMLKERYQIGPDQIEALYQYAKFQFECGNYSGAADYLYQYRTLCSNLERSLSALWGKLASEILMQNWDIALEELNRLKEIIDSKSFSSPLNQVQNRIWLMHWGLYIFFNHDNGRTQIIDLFNQDKYLNAIQTSAPHLLRYLATAFIVNKRRRPQLKEFIKVIQQEHYSYKDPIIEFLACVFVNYDFDGAQKKMKECEEVIVNDPFLGKRVEDGNFSTVPLRDEFLENARLFVFETYCKIHQRIDMGVLAEKLNLNYEEAERWIVNLIRTSKLDAKIDSESGTVIMEPTQPNVHEQLINHTKGLSGRTYKLVNQLLEHTQAQATR | binds
DEAD box RNA helicase 3 (RH3) (protein, UniProt Q8L7S8 61-748) AVATPNSVLSEEAFKSLGLSDHDEYDLDGDNNNVEADDGEELAISKLSLPQRLEESLEKRGITHLFPIQRAVLVPALQGRDIIARAKTGTGKTLAFGIPIIKRLTEEAGDYTAFRRSGRLPKFLVLAPTRELAKQVEKEIKESAPYLSTVCVYGGVSYTIQQSALTRGVDVVVGTPGRIIDLIEGRSLKLGEVEYLVLDEADQMLAVGFEEAVESILENLPTKRQSMLFSATMPTWVKKLARKYLDNPLNIDLVGDQDEKLAEGIKLYAIATTSTSKRTILSDLITVYAKGGKTIVFTQTKRDADEVSLALSNSIATEALHGDISQHQRERTLNAFRQGKFTVLVATDVASRGLDIPNVDLVIHYELPNDPETFVHRSGRTGRAGKEGSAILMHTSSQKRTVRSLERDVGCHFEFISPPTVGDLLESSADQVVATLNGVHPDSIKFFSATAQKLYEEKGTDALAAALAHLSGFSQPPSSRSLLSHEKGWVTLQLIRDPTNARGFLSARSVTGFLSDLYRTAADEVGKIFLIADDRIQGAVFDLPEEIAKELLEKDVPEGNSLSMITKLPPLQDDGPSSDNYGRFSSRDRMPRGGGGSRGSRGGRGGSSRGRDSWGGDDDRGSRRSSGGGSSWSRGGSSSRGSSDDWLIGGRSSSSSRAPSRERSFGGSCFICGKSGHRATDCPDKRGF | binds
DEAD box RNA helicase 6 (RH6) (protein, UniProt Q94BV4 1-528) MNNNNNNRGRFPPGIGAAGPGPDPNFQSRNPNPPQPQQYLQSRTPFPQQPQPQPPQYLQSQSDAQQYVQRGYPQQIQQQQQLQQQQQQQQQQQEQQWSRRAQLPGDPSYIDEVEKTVQSEAISDSNNEDWKATLKLPPRDNRYQTEDVTATKGNEFEDYFLKRDLLRGIYEKGFEKPSPIQEESIPIALTGSDILARAKNGTGKTGAFCIPTLEKIDPENNVIQAVILVPTRELALQTSQVCKELSKYLKIEVMVTTGGTSLRDDIMRLYQPVHLLVGTPGRILDLAKKGVCVLKDCAMLVMDEADKLLSVEFQPSIEELIQFLPESRQILMFSATFPVTVKSFKDRYLKKPYIINLMDQLTLMGVTQYYAFVEERQKVHCLNTLFSKLQINQSIIFCNSVNRVELLAKKITELGYSCFYIHAKMVQDHRNRVFHDFRNGACRNLVCTDLFTRGIDIQAVNVVINFDFPRTSESYLHRVGRSGRFGHLGLAVNLVTYEDRFKMYQTEQELGTEIKPIPSLIDKAIYCQ | binds
PTAC5 (protein, UniProt A1A6M1 41-387) CFSTQNPDREEVRWLREEQRWIREEQRWIREEQRWIRERESLLQEISDLQLRIQSLESRNSQLGNSIPDTISNIAALLQVLKEKNRISESGLSATPMVLESTREQIVEEVEEEEKRVIIAEEKVRVSEPVKKIKRRILKVGSEGDDVQALQEALLKLGFYSGEEDMEFSSFSSGTASAVKTWQASLGVREDGVMTAELLQRLFMDEDVETDKDEASTMKKEEAGNGAVFTSVTQVPEKKQSIVKDQSDREVDVTQNRVFLLGENRWEDPSRLIGRNKPVDRSESTNTKTRCITCRGEGRLMCLECDGTGEPNIEPQFMEWVGEDTKCPYCEGLGYTVCDVCDGKKNL | binds
PTAC16 (protein, UniProt Q9STF2 20-510) FNRRKPRLTVWAKQTAFQLGKTKGDDDSEGKQKGKNPFQFDFGKLPDMKSLIPVVTNPSTGLVFGNNRKKDPGTIFVAGATGQAGIRIAQTLLQRGFSVRAGVPDLGAAQDLARVAATYKILSNDEVKRLNAVQSPFQDAESIAKAIGNATKVVVTVGATENGPDAQVSTSDALLVVQAAELAGVSHVAIVYDGTISGSTYNVLDGITSFFGNLFAKSQPLTISDLIEKVAQTDVAYTLIKTSLTEDFSPEKAYNVVVSAEGSNSGSGSSSSEAYKVPKLKIASLVADIFANTAVAENKVVEVSTDPSAPSRPVDELFSVIPEDGRRKVYADAIARERAEEEAKVAADKAREAAEAAKEFEKQMQKLSEKEAEAASLAEDAQQKADAVGVTVDGLFNKAKDISSGLSWNKLGSQFATAIQNASETPKVQVATVRGQAKARNLPPKKAVVKQRPSSPFASKPKEERPKKPEKEVRKVFGGLFKQETIYIDDD | binds
RNA Recognition Motif (RRM)-containing protein UBA2C (protein, UniProt Q9LKA4 1-404) MDMMKKRKLDENGNGLNTNGGGTIGPTRLSPQDARKIIERFTTDQLLDLLQEAIVRHPDVLESVRLTADSDISQRKLFIRGLAADTTTEGLRSLFSSYGDLEEAIVILDKVTGKSKGYGFVTFMHVDGALLALKEPSKKIDGRVTVTQLAASGNQGTGSQIADISMRKIYVANVPFDMPADRLLNHFMAYGDVEEGPLGFDKVTGKSRGFALFVYKTAEGAQAALADPVKVIDGKHLNCKLAVDGKKGGKPGMPQAQDGGSGHGHVHGEGMGMVRPAGPYGAAGGISAYGGYSGGPPAHHMNSTHSSMGVGSAGYGGHYGGYGGPGGTGVYGGLGGGYGGPGTGSGQYRMPPSSMPGGGGYPESGHYGLSSSAGYPGQHHQAVGTSPVPRVPHGGMYPNGPPNY | binds
